Results are given in words; binding and its absence hold for the method and conditions named. For some assays here: Binding seen in cells or lysates may run through a third protein. Some binding calls cover weakened binding; strength is not graded here. For some assays here: Tags and fused reporters may be left off the sequences shown.
T1: Src homology 2 domain containing protein tyrosine phosphatase substrate 1 (SHPS-1), endogenous in porcine aortic smooth muscle cells (porcine) (UniProt F1S887)
T1 sequence: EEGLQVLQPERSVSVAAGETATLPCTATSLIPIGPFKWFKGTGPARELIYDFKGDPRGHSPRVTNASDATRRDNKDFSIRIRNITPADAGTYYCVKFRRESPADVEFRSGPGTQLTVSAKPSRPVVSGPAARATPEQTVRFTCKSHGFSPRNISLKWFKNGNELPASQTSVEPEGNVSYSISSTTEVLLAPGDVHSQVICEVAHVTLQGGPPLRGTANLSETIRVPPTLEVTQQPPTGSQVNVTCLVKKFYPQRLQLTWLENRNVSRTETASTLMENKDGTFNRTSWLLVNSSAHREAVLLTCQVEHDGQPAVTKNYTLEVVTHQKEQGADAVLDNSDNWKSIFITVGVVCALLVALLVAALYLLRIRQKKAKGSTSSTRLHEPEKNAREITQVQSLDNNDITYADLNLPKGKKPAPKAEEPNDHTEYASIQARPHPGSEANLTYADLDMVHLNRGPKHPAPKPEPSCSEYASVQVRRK

B1: integrin associated protein (IAP), endogenous in porcine aortic smooth muscle cells (receptor, UniProt Q9GKE8 19-303, looked up)
chain: QLIFNITKSVEFTVCNTTVTIPCFVNNMEAKNISELYVKWKFKGKDIFIFDGAQHISKPSEAFPSSKISPSELLHGIASLKMDKRDAVIGNYTCEVTELSREGETIIELKRRFVSWFSPNENILIVIFPILAILLFWGQFGILTLKYKSSYTKEKTIFLLVAGLMLTIIVIVGAILFIPGEYSTKNACGLGLIVIPTAILILLQYCVFMMALGMSSFTIAILILQVLGHVLSVVGLSLCVSECTPVHGPLLISGLGIIALAELLGLVYMKCVASDHKTIQPPRNN
B2: Full-length porcine IAP with a C-terminal FLAG epitope (IAPfl) (receptor, UniProt Q9GKE8 19-303, looked up, not shown: small tags and cut ends)
chain: QLIFNITKSVEFTVCNTTVTIPCFVNNMEAKNISELYVKWKFKGKDIFIFDGAQHISKPSEAFPSSKISPSELLHGIASLKMDKRDAVIGNYTCEVTELSREGETIIELKRRFVSWFSPNENILIVIFPILAILLFWGQFGILTLKYKSSYTKEKTIFLLVAGLMLTIIVIVGAILFIPGEYSTKNACGLGLIVIPTAILILLQYCVFMMALGMSSFTIAILILQVLGHVLSVVGLSLCVSECTPVHGPLLISGLGIIALAELLGLVYMKCVASDHKTIQPPRNN

Assays:
[1] = target: T1, Src homology 2 domain containing protein tyrosine phosphatase substrate 1 (SHPS-1), endogenous in porcine aortic smooth muscle cells (porcine); experiment: co-immunoprecipitation from lysates of quiescent pSMCs, with anti IAP and with anti SHPS-1 antibodies
[2] = target: T1, Src homology 2 domain containing protein tyrosine phosphatase substrate 1 (SHPS-1), endogenous in porcine aortic smooth muscle cells (porcine); experiment: SHPS-1 immunoprecipitated from transfected pSMCs, immunoblot for FLAG

Row | Binder | binding [1] | binding [2]
1 | B1 | binds | 
2 | B2 |  | binds

Source: patent publication US20140141002A1
